Binding data for two substances are collected here from PMC11001723.

By UniProt entry, the sequences of proteins in these tests, tags left out.
UniProt P28741: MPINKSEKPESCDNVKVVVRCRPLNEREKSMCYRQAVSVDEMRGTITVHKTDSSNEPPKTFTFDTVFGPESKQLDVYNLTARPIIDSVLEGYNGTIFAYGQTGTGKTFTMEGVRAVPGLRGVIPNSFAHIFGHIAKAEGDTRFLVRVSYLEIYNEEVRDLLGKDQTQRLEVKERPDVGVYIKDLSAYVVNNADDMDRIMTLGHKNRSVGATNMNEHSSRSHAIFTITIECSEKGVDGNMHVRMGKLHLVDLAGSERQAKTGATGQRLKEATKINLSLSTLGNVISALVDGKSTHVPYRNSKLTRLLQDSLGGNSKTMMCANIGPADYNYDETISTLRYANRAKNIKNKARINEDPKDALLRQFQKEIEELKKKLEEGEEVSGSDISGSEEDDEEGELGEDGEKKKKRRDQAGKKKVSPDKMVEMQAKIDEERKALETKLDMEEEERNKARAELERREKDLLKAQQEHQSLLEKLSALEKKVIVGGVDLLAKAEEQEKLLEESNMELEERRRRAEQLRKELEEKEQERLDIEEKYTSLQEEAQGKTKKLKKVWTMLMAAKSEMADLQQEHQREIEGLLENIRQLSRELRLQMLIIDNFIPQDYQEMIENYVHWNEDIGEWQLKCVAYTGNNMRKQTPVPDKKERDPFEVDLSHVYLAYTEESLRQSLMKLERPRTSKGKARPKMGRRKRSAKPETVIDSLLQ
UniProt Q9QWK5: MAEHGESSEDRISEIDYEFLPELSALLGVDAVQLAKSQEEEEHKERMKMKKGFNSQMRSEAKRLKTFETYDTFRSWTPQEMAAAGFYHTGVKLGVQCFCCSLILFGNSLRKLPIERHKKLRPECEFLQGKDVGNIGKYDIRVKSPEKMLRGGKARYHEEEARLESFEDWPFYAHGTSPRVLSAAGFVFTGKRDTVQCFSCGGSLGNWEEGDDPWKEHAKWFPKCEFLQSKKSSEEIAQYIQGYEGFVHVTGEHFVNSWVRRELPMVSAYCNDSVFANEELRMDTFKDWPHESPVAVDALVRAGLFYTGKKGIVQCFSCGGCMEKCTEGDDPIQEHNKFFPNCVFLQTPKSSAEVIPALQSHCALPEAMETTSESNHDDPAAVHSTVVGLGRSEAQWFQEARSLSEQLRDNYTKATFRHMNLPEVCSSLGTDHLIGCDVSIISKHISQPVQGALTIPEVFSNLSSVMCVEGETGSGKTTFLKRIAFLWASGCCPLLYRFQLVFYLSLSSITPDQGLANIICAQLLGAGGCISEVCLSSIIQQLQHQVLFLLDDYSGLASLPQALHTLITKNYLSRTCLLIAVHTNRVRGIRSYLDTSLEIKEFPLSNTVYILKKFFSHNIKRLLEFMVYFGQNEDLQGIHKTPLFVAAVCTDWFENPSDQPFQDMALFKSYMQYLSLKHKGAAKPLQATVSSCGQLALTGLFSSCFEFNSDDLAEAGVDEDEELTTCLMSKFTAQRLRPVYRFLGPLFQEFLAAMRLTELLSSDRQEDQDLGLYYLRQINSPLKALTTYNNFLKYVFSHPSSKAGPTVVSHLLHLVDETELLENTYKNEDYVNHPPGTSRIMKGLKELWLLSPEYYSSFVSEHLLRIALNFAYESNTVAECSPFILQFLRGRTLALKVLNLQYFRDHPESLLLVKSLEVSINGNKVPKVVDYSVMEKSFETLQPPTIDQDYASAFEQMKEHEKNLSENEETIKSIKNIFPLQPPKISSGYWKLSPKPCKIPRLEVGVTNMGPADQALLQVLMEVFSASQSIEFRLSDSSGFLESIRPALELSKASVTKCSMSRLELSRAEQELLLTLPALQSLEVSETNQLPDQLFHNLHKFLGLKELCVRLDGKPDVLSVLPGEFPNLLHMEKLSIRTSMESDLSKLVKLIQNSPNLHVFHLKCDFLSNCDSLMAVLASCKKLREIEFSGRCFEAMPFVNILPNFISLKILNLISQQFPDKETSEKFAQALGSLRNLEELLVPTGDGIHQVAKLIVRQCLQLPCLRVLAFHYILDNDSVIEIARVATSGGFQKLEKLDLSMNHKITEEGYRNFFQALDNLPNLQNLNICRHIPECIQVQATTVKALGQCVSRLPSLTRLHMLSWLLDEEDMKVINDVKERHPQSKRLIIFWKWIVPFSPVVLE
UniProt E9Q7G0: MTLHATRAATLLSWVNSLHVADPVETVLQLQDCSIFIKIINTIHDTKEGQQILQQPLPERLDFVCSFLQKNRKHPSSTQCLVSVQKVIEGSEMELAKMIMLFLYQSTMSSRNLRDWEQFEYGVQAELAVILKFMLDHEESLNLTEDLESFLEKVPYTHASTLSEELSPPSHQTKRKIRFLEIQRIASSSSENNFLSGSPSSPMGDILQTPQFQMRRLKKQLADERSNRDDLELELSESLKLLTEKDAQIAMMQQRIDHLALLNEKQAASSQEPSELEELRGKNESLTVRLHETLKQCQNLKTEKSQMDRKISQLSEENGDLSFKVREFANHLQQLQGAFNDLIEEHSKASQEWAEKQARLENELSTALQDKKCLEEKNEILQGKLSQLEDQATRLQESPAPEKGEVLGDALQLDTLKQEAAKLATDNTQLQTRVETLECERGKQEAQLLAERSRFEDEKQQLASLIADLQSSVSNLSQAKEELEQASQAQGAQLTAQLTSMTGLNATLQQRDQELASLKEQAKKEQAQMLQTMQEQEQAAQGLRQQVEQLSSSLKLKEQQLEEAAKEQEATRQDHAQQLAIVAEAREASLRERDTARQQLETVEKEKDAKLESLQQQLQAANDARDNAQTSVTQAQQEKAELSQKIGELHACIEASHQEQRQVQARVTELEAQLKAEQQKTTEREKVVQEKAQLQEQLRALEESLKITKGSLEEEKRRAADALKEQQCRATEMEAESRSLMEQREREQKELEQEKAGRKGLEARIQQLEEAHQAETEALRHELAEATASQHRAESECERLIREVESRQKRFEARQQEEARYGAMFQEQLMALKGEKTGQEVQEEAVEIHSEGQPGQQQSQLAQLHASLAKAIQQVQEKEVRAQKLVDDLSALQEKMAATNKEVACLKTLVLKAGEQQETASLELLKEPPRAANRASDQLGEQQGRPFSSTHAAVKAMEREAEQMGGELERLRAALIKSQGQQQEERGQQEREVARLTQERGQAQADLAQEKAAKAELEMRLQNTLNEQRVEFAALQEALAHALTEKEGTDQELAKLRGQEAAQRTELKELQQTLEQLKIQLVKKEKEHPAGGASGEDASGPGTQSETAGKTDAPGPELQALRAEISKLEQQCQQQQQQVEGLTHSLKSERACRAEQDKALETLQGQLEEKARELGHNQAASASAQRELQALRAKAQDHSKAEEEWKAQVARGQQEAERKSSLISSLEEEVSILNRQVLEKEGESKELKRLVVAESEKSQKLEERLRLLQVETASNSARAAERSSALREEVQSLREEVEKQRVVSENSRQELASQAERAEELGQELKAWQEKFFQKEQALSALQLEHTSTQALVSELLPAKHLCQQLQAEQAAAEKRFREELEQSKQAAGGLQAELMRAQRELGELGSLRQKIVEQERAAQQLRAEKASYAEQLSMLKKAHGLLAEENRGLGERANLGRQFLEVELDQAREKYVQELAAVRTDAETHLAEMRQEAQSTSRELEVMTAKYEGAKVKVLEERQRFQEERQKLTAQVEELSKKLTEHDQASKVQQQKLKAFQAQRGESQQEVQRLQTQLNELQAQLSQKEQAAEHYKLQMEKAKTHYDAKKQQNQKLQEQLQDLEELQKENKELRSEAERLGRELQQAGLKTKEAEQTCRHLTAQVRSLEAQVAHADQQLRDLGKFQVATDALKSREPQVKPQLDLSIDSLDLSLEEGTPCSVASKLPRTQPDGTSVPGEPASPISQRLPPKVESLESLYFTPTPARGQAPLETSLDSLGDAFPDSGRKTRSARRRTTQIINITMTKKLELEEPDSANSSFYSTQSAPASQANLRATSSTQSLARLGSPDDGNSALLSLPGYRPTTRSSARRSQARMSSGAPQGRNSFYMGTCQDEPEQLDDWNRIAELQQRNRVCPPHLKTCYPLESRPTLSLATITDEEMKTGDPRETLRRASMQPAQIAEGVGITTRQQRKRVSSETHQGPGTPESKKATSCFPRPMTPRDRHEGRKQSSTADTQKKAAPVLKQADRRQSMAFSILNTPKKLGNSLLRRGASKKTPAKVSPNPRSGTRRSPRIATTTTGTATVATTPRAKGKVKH

Results are given in words; binding and its absence hold for the method and conditions named. In cells and extracts the contact can be indirect. A yes stands for co-enrichment or nearness to the bait. Other partners may have been found.

This experiment deals with Kinesin family member 3A (mouse (endogenous in ovary)) (UniProt P28741). The experiment can be described thus: affinity purification with mass spectrometry; rabbit anti-KIF3A antibody on Dynabeads Protein G, incubated with lysate of 6 mouse ovaries for 6 h at 4 °C; eluate analysed by LC-MS (Mascot search).

With BIR1A (from UniProt Q9QWK5 1-1403), the binding result was “binds”.

In the case of “nuclear mitotic apparatus protein (from UniProt E9Q7G0 1-2094)”, the binding entry was “binds”.
